According to article doi:10.1101/2021.09.09.459581:
Results are given in words; binding and its absence hold for the method and conditions named. Binding calls can cover weak binding; strength is not graded here.

Chains of the proteins cited; added tags and fusions are not shown. Lines headed by an entry give the natural chain unless they say otherwise; changes in a name come on top. Residues count along the entry.
UniProt P02769, residues 25-607: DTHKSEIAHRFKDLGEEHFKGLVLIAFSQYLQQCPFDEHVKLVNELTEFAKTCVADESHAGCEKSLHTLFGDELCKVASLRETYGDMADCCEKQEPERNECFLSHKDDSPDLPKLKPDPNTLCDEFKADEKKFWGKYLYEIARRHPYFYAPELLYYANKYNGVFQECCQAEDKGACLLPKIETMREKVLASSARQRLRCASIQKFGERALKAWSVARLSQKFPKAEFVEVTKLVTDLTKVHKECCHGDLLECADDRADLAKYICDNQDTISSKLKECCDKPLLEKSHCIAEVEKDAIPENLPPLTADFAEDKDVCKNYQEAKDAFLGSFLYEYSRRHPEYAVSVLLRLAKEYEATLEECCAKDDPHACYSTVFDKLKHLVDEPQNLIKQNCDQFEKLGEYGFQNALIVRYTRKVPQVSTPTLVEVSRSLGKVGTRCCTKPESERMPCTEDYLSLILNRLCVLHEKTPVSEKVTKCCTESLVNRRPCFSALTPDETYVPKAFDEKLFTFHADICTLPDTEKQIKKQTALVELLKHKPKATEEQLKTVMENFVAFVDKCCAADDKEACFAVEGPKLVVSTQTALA
UniProt Q8N539: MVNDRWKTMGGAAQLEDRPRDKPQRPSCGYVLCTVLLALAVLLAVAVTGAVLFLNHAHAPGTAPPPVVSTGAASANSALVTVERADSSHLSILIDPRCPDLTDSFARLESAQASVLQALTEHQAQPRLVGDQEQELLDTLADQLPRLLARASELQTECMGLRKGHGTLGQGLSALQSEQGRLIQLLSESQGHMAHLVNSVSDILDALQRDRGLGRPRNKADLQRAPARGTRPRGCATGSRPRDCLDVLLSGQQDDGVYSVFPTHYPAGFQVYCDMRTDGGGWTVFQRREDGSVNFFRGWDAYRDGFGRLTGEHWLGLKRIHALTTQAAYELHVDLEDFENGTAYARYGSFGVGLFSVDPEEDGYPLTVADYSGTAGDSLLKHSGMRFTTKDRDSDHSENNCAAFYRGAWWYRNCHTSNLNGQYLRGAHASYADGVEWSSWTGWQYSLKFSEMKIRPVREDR

Target: acetylated BSA (bovine) (UniProt P02769)
Assay: ELISA

Q: With “Recombinant FIBCD1 fibrinogen-related domain (FIBCD1-FReD) (from UniProt Q8N539) (domain or fragment)” as the substance, how does the binding read?
A: binds
